Test results published in article PMC5652735.
Results are given in words; binding and its absence hold for the method and conditions named. Binding seen in cells or lysates may run through a third protein. Some binding calls cover weakened binding; strength is not graded here.

Amino acid sequences for entries named in this document (tags omitted).
UniProt Q15691: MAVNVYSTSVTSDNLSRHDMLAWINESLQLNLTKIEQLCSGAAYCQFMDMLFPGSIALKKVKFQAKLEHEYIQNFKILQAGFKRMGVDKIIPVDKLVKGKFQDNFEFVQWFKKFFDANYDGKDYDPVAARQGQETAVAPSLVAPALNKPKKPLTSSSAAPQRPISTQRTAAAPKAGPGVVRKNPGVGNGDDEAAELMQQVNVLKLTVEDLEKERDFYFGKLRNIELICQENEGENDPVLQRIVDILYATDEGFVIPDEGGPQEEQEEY

Molecular target: GST-EB1 (UniProt Q15691)
Experiment: pull-down; GST-EB1 bound to glutathione-Sepharose 4B incubated with cleared whole cell lysate (Hs578t or MDA-MB-436) for 1.5 h at 4 °C; 50 mM Tris-HCl pH 7.5, 100 mM NaCl, 2 mM MgCl2, 10% glycerol, 1% Nonidet P-40, 1 mM PMSF; three washes; western blot; GST-loaded beads as control; only the target purified

binding | Binder
binds | SEPT7 (protein, UniProt Q16181 1-437) MSVSARSAAAEERSVNSSTMVAQQKNLEGYVGFANLPNQVYRKSVKRGFEFTLMVVGESGLGKSTLINSLFLTDLYSPEYPGPSHRIKKTVQVEQSKVLIKEGGVQLLLTIVDTPGFGDAVDNSNCWQPVIDYIDSKFEDYLNAESRVNRRQMPDNRVQCCLYFIAPSGHGLKPLDIEFMKRLHEKVNIIPLIAKADTLTPEECQQFKKQIMKEIQEHKIKIYEFPETDDEEENKLVKKIKDRLPLAVVGSNTIIEVNGKRVRGRQYPWGVAEVENGEHCDFTILRNMLIRTHMQDLKDVTNNVHYENYRSRKLAAVTYNGVDNNKNKGQLTKSPLAQMEEERREHVAKMKKMEMEMEQVFEMKVKEKVQKLKDSEAELQRRHEQMKKNLEAQHKELEEKRRQFEDEKANWEAQQRILEQQNSSRTLEKNKKKGKIF
binds | SEPT2 (protein, UniProt Q15019 1-361) MSKQQPTQFINPETPGYVGFANLPNQVHRKSVKKGFEFTLMVVGESGLGKSTLINSLFLTDLYPERVIPGAAEKIERTVQIEASTVEIEERGVKLRLTVVDTPGYGDAINCRDCFKTIISYIDEQFERYLHDESGLNRRHIIDNRVHCCFYFISPFGHGLKPLDVAFMKAIHNKVNIVPVIAKADTLTLKERERLKKRILDEIEEHNIKIYHLPDAESDEDEDFKEQTRLLKASIPFSVVGSNQLIEAKGKKVRGRLYPWGVVEVENPEHNDFLKLRTMLITHMQDLQEVTQDLHYENFRSERLKRGGRKVENEDMNKDQILLEKEAELRRMQEMIARMQAQMQMQMQGGDGDGGALGHHV
